# Measured values from PubChem BioAssay AID1662 (Broad Institute, 2009).
# The campaign covered roughly 300,000 compounds. About 4,000 (1.3%) were called active. This list was built around the results that the source calls inconclusive (neither active nor inactive); the mix of calls is not that of the screen.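 Rule for the calls: active = mean replicate score, as percent of positive control median, at least 50; inconclusive = mean below 50 but one replicate at or above 50; inactive = mean and every replicate below 50.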
# Experiment: kanamycin survival loss of SKKanGAS strain – BacTiter-Glo luminescence, streptokinase expression inhibitor project, primary screen (AID 1662);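 note: strain carries kanamycin resistance gene driven by streptokinase promoter and grows in 40 µg/ml kanamycin; loss of luminescence reflects streptokinase promoter inhibition or plain growth inhibition; 0% = median of DMSO wells and 100% = positive control at its reference dose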
# Settings: S. pyogenes SKKanGAS, kanamycin growth, 6 h, at 7.5 µM, stronger effect = higher value
row,SMILES,inhibition
1,COC(=O)c1c(NC(=O)c2ccn(C)n2)sc2c1CCC2,inconclusive: 38.1%
2,CC1(C)N=C(N)N=C(N)N1c1cccc(CN)c1,inactive: -16.2%
3,Cc1cc(C)cc(NS(=O)(=O)c2ccc(NC(=S)NC(=O)c3cccs3)cc2)c1,active: 76.6%
4,COc1ccccc1-n1c(SCC(=O)Nc2ccc(NC(C)=O)cc2)nc2c([nH]c3ccccc32)c1=O,inconclusive: 43.5%
5,O=C(N/N=C/c1cccs1)c1cccc(NC(=O)c2ccc(Cl)cc2)c1,inactive: 3.99%
6,O=C1NC(=O)/C(=C/c2ccc(-c3cc(C(=O)O)ccc3Cl)o2)S1,inactive: 34%
7,O=C(Nc1ccccc1C(=O)N1CCCCCC1)c1cccc([N+](=O)[O-])c1,inactive: -8.57%
8,CCOC(=O)C1CCN(C(=O)c2ccc(OCC(=O)Nc3cccc(C(F)(F)F)c3)c(OC)c2)CC1,inactive: 5.2%
9,c1ccc(-c2nc(C3CCCCC3)c3ccccc3n2)cc1,inconclusive: 45.5%
10,CNCCCOc1cc(C)cc(C)c1C,inactive: 7.39%
11,CC(C)C[C@H](NC(=O)c1nc[nH]c1C(=O)N1CCc2ccccc2C1)C(=O)OCc1ccccc1,inconclusive: 45.5%
12,CC(C)c1nc2sc3c(NCc4ccccc4)ncnc3c2c2c1COC(C)(C)C2,inactive: 10.2%
13,Oc1ccc(/C=N/N=C/c2ccc(O)cc2)cc1,inactive: -3.3%
14,O=C(NNC(=O)c1ccccc1OCc1ccccc1Cl)c1csc(N2CCOCC2)n1,active: 60.2%
15,CN1C(=O)/C(=C/c2ccccc2F)Sc2ccc(C(=O)NCC3CCCO3)cc21 (stereo not given),inconclusive: 45.7%
16,OC(CNCc1ccccc1)COc1ccccc1 (stereo not given),inactive: 1.56%
17,CC(=O)N1CCOc2ccc(S(=O)(=O)NCC3CCC(C(=O)Nc4ccc(C)cn4)CC3)cc21 (stereo not given),inactive: -3.29%
18,COc1ccc(NC(=O)C2CCN(S(=O)(=O)c3ccc4c(c3)NC(=O)CO4)CC2)cc1,inconclusive: 22.2%
19,CC1CCN(C(=O)CSc2nnc(CNC(=O)c3c(F)cccc3F)o2)CC1,inconclusive: 42%
20,COc1ccccc1-c1cn[nH]c1-c1ccc(OCc2ccccc2F)cc1O,inconclusive: 42.8%
21,CC(OC(=O)CC1CCCC1)C(=O)Nc1ccc(S(N)(=O)=O)cc1 (stereo not given),inconclusive: 31.4%
22,O=C(Nc1cccc(NC(=O)c2cccnc2)c1)c1ccccc1,inconclusive: 44.9%
23,O=C(Nc1ccccc1)Nc1ccc(C(=O)N2CCCC2)cc1,inconclusive: 44.9%
24,COc1ccc(CNC(=O)c2cc(SC)ccc2Cl)cc1OC,inactive: 1.19%
25,CCCCc1nc(NCc2ccccc2)c(C#N)c2c1CCCC2,active: 60%

# Fetched by compound from the entries so far (two):
row,SMILES,inhibition
6,O=C1NC(=O)/C(=C/c2ccc(-c3cc(C(=O)O)ccc3Cl)o2)S1,inactive: 34%
20,COc1ccccc1-c1cn[nH]c1-c1ccc(OCc2ccccc2F)cc1O,inconclusive: 42.8%
